Hit rate of the full screen: of about 320,000 compounds, about 2,100 (0.66%) were called active. The inconclusive results got no clear call from the source; some entries with a clear call stand among them for comparison. Calls follow the shape of the dose curve; as a rule, active = well fitted inhibition curve with a large enough effect in the signal ratio, with a control signal flat (not every such curve was filed as active); inconclusive = small, poorly fitted or top-dose-only effect, or effect the other way, or a change in a side signal; inactive = flat fitted curve, though single readings scatter; the % refers to the signal ratio. Potencies beside an inconclusive call are fits to weak or partial responses and may not hold up.
Assay: qHTS Assay for Lipid Storage Modulators in Drosophila S3 Cells
Conditions: BODIPY lipid droplet fluorescence, 18-24 h, cells fed with added oleic acid; lipid storage change, negative = inhibition: at 46.1 µM (top of the series) unless noted
How it was run: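 Laser-scanning cytometry quantifies lipid droplet accumulation (500–530 nm total intensity; droplet/cell object ratio) in oleic acid-fed (400 uM added) Drosophila S3 cells treated with a concentration series. 20 uM Triacsin C defined 100% inhibition.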
% is scaled to controls: 0 for no effect and ±100 for the full control effect; potency is read from the fitted curve at half-maximal effect.

Compound	lipid storage change, negative = inhibition	Potency	outcome
COc1cc(/C=C/C(=O)N(Cc2ccccc2)c2ccccn2)cc(OC)c1OC	inconclusive: 21.6%		
CC(=O)Nc1ccc(S(=O)(=O)N/N=C/c2ccc(C)o2)cc1	inconclusive: -19.6%		
C#Cc1ccc(CN2CCC(Oc3ccc(C(=O)NCc4ccccn4)cc3)CC2)cc1	inconclusive: 22%		
CC(Cc1ccsc1)NC(=O)CCc1nnc(COc2ccccc2)o1 (configuration not stated)		inconclusive: 0.116 µM [falling, full curve, poor fit]	
CCN(CC(=O)Nc1c(F)cccc1F)C(=O)c1ccc(C)c(S(=O)(=O)N2CCCCC2)c1	inconclusive		
CC(=O)N(C1=C(O)c2ccccc2C(=O)C1=O)C1CCCCC1	inconclusive: -11%		
CSc1ncccc1C(=O)OCC(=O)NC(C)C	inconclusive: 12%		
COC(=O)COc1coc(CN2CCN(c3cccc(Cl)c3)CC2)cc1=O			inactive [at 46.1 µM]
CCCC12CN3CCN(CC(C3)/C1=N\NC(=O)Nc1ccccc1)C2	inconclusive: 211%		
Cc1ccc(C)c2[nH]c(=O)c(CN(CC3CCCO3)S(=O)(=O)c3ccc4c(c3)OCCO4)cc12 (configuration not stated)	inconclusive: -5.55%		
COc1ccc(Cl)cc1NC(=O)CN(C1CCCCC1)S(C)(=O)=O		inconclusive: 8.2 µM [activator, partial curve]	
O=C(CN1CCCc2ccccc21)N/N=C/c1ccccc1	inconclusive: 17.9%		
COc1ccc(NC(=O)C2CCCN(c3nc(C)cc(C)n3)C2)cc1 (configuration not stated)	inconclusive: 7.51%		
N#CC(CO)(Cc1ccc(OC(F)F)cc1)c1nc2ccccc2[nH]1 (configuration not stated)		inconclusive: 6.51 µM [activator, single point]	
Cc1nc2cc(C)c(C)cc2s1	inconclusive: -5.31%		
N#Cc1ccc(C2N=C(c3ccccc3)NO2)cc1 (configuration not stated)	inconclusive: 73.4%		
COc1ccc(N(C(=O)c2cccnc2)S(=O)(=O)c2cccc([N+](=O)[O-])c2)cc1	inconclusive: -59.1%		
COc1ccc(C(=O)Cn2c(C)nc([N+](=O)[O-])c2Br)cc1	inconclusive: -10.5%		
CCOc1ccc(NC(=O)c2ccccc2NC(=O)CN(C)CC(=O)Nc2ccc(C)cc2)cc1	inconclusive: 6.99%		
COc1ccc(OC)c(NC(=O)C2CCN(Cc3cnn(-c4ccccc4)c3-n3cccc3)CC2)c1		inconclusive: 23.1 µM [activator, partial curve]	
O=C(COC(=O)c1cccs1)NCCc1ccc(F)cc1	inconclusive		
S=c1nc[nH]c2c1cnn2Cc1ccccc1	inconclusive: -3.72%		
COc1ccc(CCC(=O)OCC(=O)N(C)c2c(N)n(Cc3ccccc3)c(=O)[nH]c2=O)cc1	inconclusive		
O=S(=O)(NC1CCCCC1NCc1ccco1)c1ccccc1 (configuration not stated)	inconclusive: 95.5%		
Cc1ccc(CNS(=O)(=O)c2cn(C)cn2)cc1		inconclusive: 0.92 µM [falling, full curve, poor fit]	
Cc1ccc(Cn2c(S(=O)(=O)O)nc3ccccc32)cc1	inconclusive: -6.21%		

Two of these compounds, set out differently:
CSc1ncccc1C(=O)OCC(=O)NC(C)C
  lipid storage change, negative = inhibition: inconclusive: 12%
CCOc1ccc(NC(=O)c2ccccc2NC(=O)CN(C)CC(=O)Nc2ccc(C)cc2)cc1
  lipid storage change, negative = inhibition: inconclusive: 6.99%

Continued.

Compound	lipid storage change, negative = inhibition	Potency	outcome
Cc1cc(C(=O)CN2C(=O)NC3(CCCc4ccccc43)C2=O)c(C)n1Cc1ccccc1 (configuration not stated)		inconclusive: 25.9 µM [activator, single point]	
O=C(Cc1ccc(NC2=NC3CS(=O)(=O)CC3S2)cc1)Nc1ccc(F)cc1 (configuration not stated)	inconclusive: 34.1%		
Cc1noc(C)c1C(=O)NCCCc1ccccc1		inconclusive: 2.06 µM [falling, partial curve]	
CC(C)N(C(=O)CO/N=C/c1cccc([N+](=O)[O-])c1)C(C)C	inconclusive: 34.2%		
CC(C)N(C(=O)CSc1nc(Cc2ccccc2)nc2ccccc12)C(C)C		inconclusive: 29.1 µM [falling, single point]	
Fc1ccccc1CSc1nncn1NC/C=C/c1ccccc1	inconclusive: 27.3%		
Cc1oc2ccccc2c1CC(=O)NCCCN(C)C	inconclusive: 19.5%		
O=C(NC1CC1)c1ccc(-c2ccccc2)cc1	inconclusive: -1.58%		
O=C(/C=C/c1ccccc1)c1ccoc1		inconclusive: 0.0052 µM [falling, full curve, poor fit]	
Cc1cccc(C)c1NC(=O)CSc1nnc(NC(=O)C2CC2)s1	inconclusive: 67.1%		
O=C(Cc1ccccc1)NCCSC1CCCCC1	inconclusive: 10.4%		
CN(C)S(=O)(=O)c1cccc(NC(=O)Cn2cnc3ccccc3c2=O)c1	inconclusive: 20.5%		
COc1ccc(CNS(=O)(=O)CCNC(=O)c2ccc(OC)cc2)cc1		inconclusive: 6.51 µM [falling, single point]	
Cc1cc(C)n(CC(=O)Nc2ccc(N3CCOCC3)c(Cl)c2)c(=O)c1C#N	inconclusive: 435%		
O=C(O)c1[nH]c2ccc([N+](=O)[O-])cc2c1-c1ccccc1	inconclusive: -30.9%		
C=CCn1c(C)cc(C(=O)COC(=O)c2cncc(Br)c2)c1C		inconclusive: 16.4 µM [falling, single point]	
CCOC(=O)CC1=CC(=O)Nc2ccccc2N1		inconclusive: 1.84 µM [activator, full curve, poor fit]	
CC(=O)Oc1ccc(C2C3=C(CC(C)(C)CC3=O)Nc3cc4c(cc32)OCCO4)cc1 (configuration not stated)	inconclusive: 3.53%		
CCOCCCNC(=O)C(c1ccc(Cl)cc1)N1CCC2(CC1)OCCO2 (configuration not stated)	inconclusive: -0.354%		
Cc1ccc(C(C)NC(=O)C2CCCO2)cc1C (configuration not stated)	inconclusive: 38%		
COC(=O)c1c(C)nc2ccccc2c1-c1ccccc1		inconclusive: 18.4 µM [activator, partial curve]	
COc1ccc(-c2nnc(SCC(=O)NNC(=O)Cc3ccccc3)n2C)cc1OC	inconclusive: 10.5%		
Cc1cccc2sc(N(CCN(C)C)C(=O)c3ccc4ccccc4c3)nc12	inconclusive: -0.34%		
COc1ccc(CNC(=O)c2sccc2-c2ccccc2)cc1OC		inconclusive: 16.4 µM [falling, single point]	
COc1cc(C)nc(N2CCCC(C(=O)NC3CCC(C)CC3)C2)n1 (configuration not stated)	inconclusive: 19.4%		
O=S(=O)(NCCc1ccncc1)c1ccccc1	inconclusive: 6.9%		

Laid out differently: entries from further up.

| Compound | lipid storage change, negative = inhibition | Potency | outcome |
| --- | --- | --- | --- |
| Cc1oc2ccccc2c1CC(=O)NCCCN(C)C | inconclusive: 19.5% |  |  |
| Cc1cc(C)n(CC(=O)Nc2ccc(N3CCOCC3)c(Cl)c2)c(=O)c1C#N | inconclusive: 435% |  |  |
| COc1cc(C)nc(N2CCCC(C(=O)NC3CCC(C)CC3)C2)n1 (configuration not stated) | inconclusive: 19.4% |  |  |

Next structures follow.

Compound	lipid storage change, negative = inhibition	Potency	outcome
CC(C(=O)NC(=O)NC1CCCCC1)N1CCN(c2ccccn2)CC1 (configuration not stated)	inconclusive: 18.7%		
COCCN1Cc2cccc(C(=O)Nc3ccc(C)c(C)c3)c2C1=O	inconclusive: 90.8%		
CC(C)C(=O)Nc1ccc(C(=O)N2CCN(C(=O)c3ccco3)CC2)cc1		active: 4.61 µM	
Cc1ccc(S(=O)(=O)N(c2nc(N(C)C)nc(N(C)C)n2)n2cnnc2)cc1		inconclusive: 25.9 µM [activator, single point]	
COc1ccc(OC)c(NC(=O)COC(=O)CSc2ccc(Cl)cc2)c1		inconclusive: 3.66 µM [falling, single point]	
CC1CCc2sc3nc(N4CCN(CCO)CC4)n4ncnc4c3c2C1 (configuration not stated)	inconclusive: -134%		
C=C[C@@](C)(O)CC[C@@H]1[C@@]2(C)CCCC(C)(C)[C@@H]2CC[C@@]1(C)O		inconclusive: 16.4 µM [falling, partial curve]	
CCS(=O)(=O)N1CCN(Cc2ccc([N+](=O)[O-])cc2)CC1	inconclusive: -1.97%		
CN(c1ccc(OC(=O)CC2OC(=O)c3ccccc32)cc1)S(=O)(=O)c1ccccc1 (configuration not stated)		inconclusive: 16.4 µM [activator, single point]	
Cc1ccc(C(=O)NC(=S)Nc2cccc(NC(=O)c3ccccc3)c2)cc1[N+](=O)[O-]		inconclusive: 29.1 µM [cytotoxic, single point]	
COc1ccc(NS(=O)(=O)c2cc(NC(=O)c3ccc(=O)[nH]c3)ccc2N2CCCC2)cc1	inconclusive: -31%		
CNC(=O)c1cc2cc(Cc3ccccc3Cl)ccc2oc1=O	inconclusive: 133%		
CCOC(=O)c1sc(NC(=O)CSc2nnc(Cc3ccccc3)o2)c(C#N)c1C		inconclusive: 2.31 µM [rising, partial curve]	
CC1Cc2cc(/C(O)=C3/C(=O)C(=O)N(CC4CCCO4)C3c3ccco3)ccc2O1 (configuration not stated)	inactive: 8.54%		
C[C@@H](NC(=O)CN1C(=O)c2ccccc2S1(=O)=O)c1ccccc1		inconclusive: 29.1 µM [falling, single point]	
CC(C)CC(=O)Nc1ccc(-c2nc3ccccc3c(=O)o2)cc1	inconclusive: -38.6%		
CC1CC(=O)N(CC(=O)Nc2ccc(F)cc2)c2ccccc2S1(=O)=O (configuration not stated)		inconclusive: 29.1 µM [falling, single point]	
Cc1ccc(C(=O)Nc2cccc(-c3ccc(N4CCOCC4)nn3)c2)cc1C		inconclusive: 13 µM [activator, partial curve, poor fit]	
O=C(COC(=O)c1cc[n+]([O-])cc1)Nc1ccc(Cl)cc1C(F)(F)F	inconclusive: 14.7%		
O=C(Nc1cc2c(cc1Cl)OCCCO2)c1ccco1	inconclusive: -1%		
O=C1Nc2ccccc2C12OC1CCCCC1O2 (configuration not stated)		inconclusive: 1.16 µM [activator, single point]	
COc1ccc(NS(=O)(=O)c2cccc(C(=O)N(C)Cc3cccs3)c2)cc1	inconclusive: 30.9% [at 0.0737 µM]		
Cc1nc(NC(=O)c2ccco2)sc1-c1csc(Nc2ccc(Cl)cc2)n1	inconclusive: -7.43%		
CCN(CC)CCCN1C(=O)C(=O)/C(=C(/O)c2ccc3c(c2)CC(C)O3)C1c1ccncc1 (configuration not stated)	inconclusive: -1.05%		
Cc1ccc(C)c(S(=O)(=O)N2CCN(CC(=O)NC(C)c3ccccc3)CC2)c1 (configuration not stated)		inconclusive: 29.1 µM [falling, single point]	

Reference: PubChem BioAssay AID2685 (National Center for Advancing Translational Sciences (NCATS), 2010)
